The data set concerns hFVII-expressing recombinant CHO cell line (HMF708). The data set is described as follows: Growth of the cell line in mass-scale production medium (4 L incubation tanks, continuous feed) containing sodium butyrate, hFVII level by enzyme immunoassay. Format: cell-based, Chinese hamster. Particulars: culturing stopped when cellular activity less than 80%. How it is done:
The transformed cells of Example <2-1> were seeded at a density of 2×10^4 cells/well to 24-well plates. When the cells were grown to almost full confluence, serum-free CHO-A-SFM (Gibco, Cat. No. 05-5072EF) supplemented with 0.3 mM sodium butyrate (Sigma, Cat. No. B5887) was aliquoted in an amount of 200 μL/well, followed by incubation at 33° C. for 48 hours in a 5% CO2 incubator. The cell culture was transferred to 1.5 mL tubes and centrifuged. Expression levels of human factor VII in the supernatants were measured by taking measurements using an enzyme immunoassay kit (American Diagnostica, Cat. no. 877) according to the manufacturer's instruction. In detail, the cell culture and the standard substance enclosed in the kit were diluted to certain concentrations in physiological saline containing 0.05% Tween-20, and the dilutions were added in an amount of 100 μL to each well of the kit and allowed to react at room temperature for one hour on a plate shaker. After being washed four times with the washing solution enclosed in the kit, each of the wells was incubated at room temperature for one hour with 100 μL of an anti-human factor VII antibody on a plate shake. Each well was again washed four times with the washing solution and then incubated at room temperature for 30 min with 100 μL of an HRP (horseradish peroxidase)-conjugated antibody to the anti-human factor VII antibody. Subsequently, the wells were washed four times, and incubated with 100 μL of a substrate per well at room temperature. Five minutes later, 50 μL of a stopping solution was added to each well, followed by measuring absorbance at 450 nm. A standard curve and a function were obtained from the concentrations of the standard solution and the absorbance values obtained.
One vial (1×10^7 cells/mL) of the hFVII-expressing cell line which had been selected and assimilated to suspension culture in Example <2-3> was taken from a liquid nitrogen tank and thawed as soon as possible in a 37° C. bath. After being washed once with a seed culturing medium (EX-CELL CHO medium (Sigma, Cat. No. 63225C) supplemented with 0.3 g/L glutamine), the cell culture was centrifuged at 90×g for min and then inoculated into 50 mL of a seed culture medium in an Erlenmeyer flask (Corning, USA cat#431144). When grown for 1-2 days to a density of 10×10^5 cell/mL in a CO2 incubator (37° C., 5% CO2), the cells were centrifuged again in the same manner and then sub-cultured in 100 mL of a fresh seed culture medium in a new Erlenmeyer flask. The double-volume passage was continued until a sufficient number of cells were achieved. […]
In addition, after the cell cultures taken during the cultivation was centrifuged, the levels of hFVII in the supernatants were measured using an enzyme immunoassay method as in Example <2-2>.

Take `CCCC(=O)[O-].[Na+]` [Sodium Butyrate, sodium butyrate]: the “Period of Time of Production (% compared to control)” value is, setting by setting: (0.3 mM sodium butyrate (control)) 100.0%; (1 mM sodium butyrate, control = 0.3 mM) 83.3%; (1.5 mM sodium butyrate, control = 0.3 mM) 72.2%; (2.0 mM sodium butyrate, control = 0.3 mM) 61.1%.
